Paper doi:10.1101/2020.11.11.378711
No constants are given. Whether binding was seen depends on the method and setting. In cells and extracts the contact can be indirect. Here binding means that the protein was enriched with, or labelled near, the bait; the list need not be complete. Sequences can lack the tags named with a protein.

Chains of the proteins cited; added tags and fusions are not shown.
UniProt Q15005: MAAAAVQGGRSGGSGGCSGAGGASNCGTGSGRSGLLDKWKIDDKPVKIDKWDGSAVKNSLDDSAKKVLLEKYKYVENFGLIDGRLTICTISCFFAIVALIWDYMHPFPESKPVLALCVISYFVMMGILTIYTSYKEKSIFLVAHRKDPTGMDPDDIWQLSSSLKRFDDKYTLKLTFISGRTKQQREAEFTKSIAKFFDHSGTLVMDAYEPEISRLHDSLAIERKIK

Target: T1, SEC11C-FLAG (SEC11C, SPC21, with a C-terminal FLAG tag) (human) (UniProt Q9BY50)
T1 sequence: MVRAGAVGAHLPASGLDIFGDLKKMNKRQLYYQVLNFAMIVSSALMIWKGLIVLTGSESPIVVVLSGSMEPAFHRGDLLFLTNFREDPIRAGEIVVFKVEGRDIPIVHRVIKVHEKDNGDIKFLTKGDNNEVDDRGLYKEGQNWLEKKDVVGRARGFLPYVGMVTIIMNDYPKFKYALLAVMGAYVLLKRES
Test: affinity purification with mass spectrometry

binding: binds
Substance: SPC25 (SPCS2), accessory subunit of the human signal peptidase complex (from UniProt Q15005 1-226)
